In paper PMC6884552, “Glycogen branching enzyme controls cellular iron homeostasis via Iron Regulatory Protein 1 and mitoNEET” (Nature Communications, 2019):
Results are given in words; binding and its absence hold for the method and conditions named. In cells and extracts the contact can be indirect. A yes stands for co-enrichment or nearness to the bait. Other partners may have been found. For some assays here: No binding means not detected with the bait. Sequences can lack the tags named with a protein.

B1: Drosophila glycogen synthase (GlyS), endogenous in larvae (enzyme, UniProt Q9VFC8 1-709)
chain: MRRQQSYRFEDNESTSYALRMNRRFSRVESGADLKDYFDRGDIASRENRWNFEVAWEVANKVGGIYTVIRSKAYVSTEEMGEQLCMMGPYKEHCARTEMEEMEFPRGNPLLDAVNSLRSRGYKIHTGRWLVDGNPQLILFDIGSAAWKLDQFKSEMWEKCHIGIPHLDIETNDAIILGFMIAEFLEEFRNFAVTYSQNNELSAPRIVAHFHEWQAGVGLIVLRTRLVEIATVFTTHATLLGRYLCAGNTDFYNNLDKFAVDEEAGKRQIYHRYCLERGATHLAHVFTTVSEITGYEAEHLLKRKPDIITPNGLNVKKFSAIHEFQNLHAVAKEKINEFVRGHFYGHIDFDLDKTLYFFIAGRYEFGNKGADIFIEALARLNAMLKHEKPDTTVVAFLIFPTKTNNFNVDSLRGHAVIKQLRDTINNVQQAVGKRMFDTCLQGNIPNADDLLQKDDLVKIKRCMFAMQRDSMPPVTTHNVADDWNDPVLSSIRRCHLFNSRHDRVKMVFHPEFLTSTNPLFGIDYEEFVRGCHLGVFPSYYEPWGYTPAECTVMGIPSVTTNLSGFGCFMEEHISDPKSYGIYIVDRRYIGLENSVQQLSSFMMEFSRLNRRQRIIQRNRTERLSDLLDWRTLGIYYRQARVKALQAVYPDYVDELSLYGSKNNLIFSRPHSEPPSPTSSRHTTPAPSVHGSDDEDSVDEETELKELGIK
B2: Drosophila IRP1B in larvae (endogenously Flag-tagged IRP1B^3F as bait; endogenous IRP1B as prey) (protein, UniProt Q9VGZ3 1-899)
chain: MSGANPFAQFEKTFSQAGTTYKYFDLASIDSKYDQLPYSIRVLLESAVRNCDNFHILEKDVQSILGWSPALKQGSNDVEVSFKPARVILQDFTGVPAVVDFAAMRDAVLDLGGDPEKINPICPADLVIDHSVQVDFARAPDALAKNQSLEFERNKERFTFLKWGAKAFNNMLIVPPGSGIVHQVNLEYLARVVFENDATDGSKILYPDSVVGTDSHTTMINGLGVLGWGVGGIEAEAVMLGQSISMLLPEVIGYKLEGKLSPLVTSTDLVLTITKHLRQLGVVGKFVEFYGPGVAELSIADRATISNMCPEYGATVGYFPIDENTLGYMKQTNRSEKKIDIIRQYLKATQQLRNYADAAQDPKFTQSITLDLSTVVTSVSGPKRPHDRVSVSDMPEDFKSCLSSPVGFKGFAIAPEAQSAFGEFQWDDGKTYKLHHGSVVIAAITSCTNTSNPSVMLGAGLLAKKAVEKGLSILPYIKTSLSPGSGVVTYYLKESGVIPYLEKLGFDIVGYGCMTCIGNSGPLEENVVNTIEKNGLVCAGVLSGNRNFEGRIHPNTRANYLASPLLVIAYAIAGRVDIDFEKEPLGVDANGKNVFLQDIWPTRSEIQEVENKHVIPAMFQEVYSKIELGSQDWQTLQVSEGKLFSWSADSTYIKRPPFFEGMTRDLPKLQSIQKARCLLFLGDSVTTDHISPAGSIARTSPAARFLSERNITPRDFNSYGSRRGNDAIMSRGTFANIRLVNKLVEKTGPRTVHIPSQEELDIFDAAERYREEGTPLVLVVGKDYGSGSSRDWAAKGPFLLGVKAVIAESYERIHRSNLVGMGIIPLQFLPGQSAETLNLTGREVYNIALPESGLKPGQKIQVEADGTVFETILRFDTEVDITYYKNGGILNYMIRKMLS
B3: Drosophila ferritin Fer1HCH, endogenous in larvae (protein, UniProt Q7KRU8 20-205)
chain: DFKCSLAVPEITKDWVDMKDACIKGMRNQIQEEINASYQYLAMGAYFSRDTVNRPGFAEHFFKAAKEEREHGSKLVEYLSMRGQLTEGVSDLINVPTVAKQEWTDGAAALSDALDLEIKVTKSIRKLIQTCENKPYNHYHLVDYLTGVYLEEQLHGQRELAGKLTTLKKMMDTNGELGEFLFDKTL
B4: Drosophila ferritin Fer2LCH, endogenous in larvae (protein, UniProt Q9VA83 20-227)
chain: KDDEYCQNTVITACSTSAFSANSICNARFAGIDHIEPEIQSYINANLAKSYDYLLLATHFNSYQKNRPGFQKLYQGLSDRSFEDSIALIKQVTRRGGIVDFNTRHESSGSVSTKRGTLEVDELHSLALALDTEKQLATGATHVHSRATHATDAERDPELAHYFEENFLGKQAESVRKLSGYANDLAKLMKVPDPSLSVYLFDEYLQKQ
B5: Drosophila IRP1A in larvae (endogenously Flag-tagged IRP1A^3F as bait; endogenous IRP1A as prey) (protein, UniProt Q9VCV4 1-902)
chain: MSGSGANPFAQFQESFTQDGNVYKYFDLPSIDSKYESLPFSIRVLLESAVRNCDNFHVLEKDVQSILGWTPSLKQETSDVEVSFKPARVILQDFTGVPAVVDFAAMRDAVRELGGNPEKINPICPADLVIDHSVQVDFVRSSDALTKNESLEFQRNKERFTFLKWGARAFDNMLIVPPGSGIVHQVNLEYLARVVFESDSSADGSKILYPDSVVGTDSHTTMINGLGVLGWGVGGIEAEAVMLGQSISMLLPEVIGYRLEGKLGPLATSTDLVLTITKHLRQLGVVGKFVEFYGPGVAELSIADRATISNMCPEYGATVGYFPIDENTLSYMRQTNRSEKKIDIIRKYLKATRQLRDYSLVDQDPQYTESVTLDLSTVVTSVSGPKRPHDRVSVSSMCEDFKSCLISPVGFKGFAIPPSALAASGEFQWDDGKSYKIGHGSVVIAAITSCTNTSNPSVMLGAGLLAKNAVQKGLSILPYIKTSLSPGSGVVTYYLRESGVIPYLEQLGFDIVGYGCMTCIGNSGPLDENVVNTIEKNGLVCCGVLSGNRNFEGRIHPNTRANYLASPLLVIAYAIAGRVDIDFEIEPLGVDSNGKEVFLRDIWPTRSEIQEVEHKHVIPAMFQEVYSKIQLGSRDWQTLEVSDSKLYPWSEISTYIKLPPFFEGMTRALPKLKGIEKARCLLLLGDSVTTDHISPAGSIARKSPAARYLSERGLTPRDFNSYGSRRGNDAVMARGTFANIRLVNKLASKTGPSTLHVPSGEEMDIFDAAERYASEGTPLVLVVGKDYGSGSSRDWAAKGPFLLGIKAVIAESYERIHRSNLVGMGIIPLQFLPGQSADTLKLSGREVYNIVLPEGELKPGQRIQVDADGNVFETTLRFDTEVDITYYKNGGILNYMIRKMLD

Legend:
[1] = target: T1, Drosophila AGBE in larvae (endogenously Flag-tagged AGBE^FCF as bait; endogenous AGBE as prey) (Drosophila (endogenous in larvae)) (UniProt A1Z992); test: affinity purification with mass spectrometry; whole-body L3 larvae with Flag-tagged knock-in alleles (AGBE^FCF, IRP1A^3F, IRP1B^3F) on regular food (IRP1A^3F also after one or two generations on BPS food); 0.2% formaldehyde cross-linking in vivo; anti-Flag M2 affinity gel, 2 h, 4 °C; proteins found in untagged controls removed
T1 sequence: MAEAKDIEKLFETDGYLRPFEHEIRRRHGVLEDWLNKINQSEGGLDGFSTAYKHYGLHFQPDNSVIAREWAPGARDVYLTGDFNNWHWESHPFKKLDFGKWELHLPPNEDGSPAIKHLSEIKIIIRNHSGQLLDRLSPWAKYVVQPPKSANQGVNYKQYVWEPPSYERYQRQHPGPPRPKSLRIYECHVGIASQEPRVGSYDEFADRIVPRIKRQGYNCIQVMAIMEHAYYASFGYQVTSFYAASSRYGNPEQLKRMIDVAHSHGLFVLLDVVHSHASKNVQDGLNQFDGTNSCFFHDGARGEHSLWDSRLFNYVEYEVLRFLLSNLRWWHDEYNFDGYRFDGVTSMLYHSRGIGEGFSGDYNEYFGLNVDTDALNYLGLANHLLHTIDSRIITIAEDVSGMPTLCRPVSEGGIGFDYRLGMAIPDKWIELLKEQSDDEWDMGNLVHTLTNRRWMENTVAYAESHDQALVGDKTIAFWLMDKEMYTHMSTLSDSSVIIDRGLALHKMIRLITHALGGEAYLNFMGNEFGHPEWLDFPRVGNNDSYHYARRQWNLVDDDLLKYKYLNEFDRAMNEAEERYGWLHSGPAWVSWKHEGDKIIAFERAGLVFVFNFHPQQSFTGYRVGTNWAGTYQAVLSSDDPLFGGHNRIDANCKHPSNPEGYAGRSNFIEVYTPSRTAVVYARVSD

[2] = target: T2, Drosophila IRP1A in larvae (endogenously Flag-tagged IRP1A^3F as bait; endogenous IRP1A as prey) (Drosophila (endogenous in larvae)) (UniProt Q9VCV4); test: as above
T2 sequence: B5 chain

[3] = target: T2, Drosophila IRP1A in larvae (endogenously Flag-tagged IRP1A^3F as bait; endogenous IRP1A as prey) (Drosophila (endogenous in larvae)); test: condition: only larvae reared for two generations on BPS (iron-depleted) food; affinity purification with mass spectrometry; whole-body larvae of IRP1A^3F flies reared for two generations (G2) on BPS-supplemented (iron-depleted) food; anti-Flag immunoprecipitation
[4] = target: T2, Drosophila IRP1A in larvae (endogenously Flag-tagged IRP1A^3F as bait; endogenous IRP1A as prey) (Drosophila (endogenous in larvae)); test: affinity purification with mass spectrometry; prothoracic gland cells purified from dissected brain-ring gland complexes (CD8.Venus, anti-CD8 beads); 0.2% formaldehyde cross-linking; anti-Flag immunoprecipitation as for whole body

Binder	binding [1]	binding [2]	binding [3]	binding [4]
B1	binds	binds	–	–
B2	binds	binds	no binding	binds
B3	–	binds	–	binds
B4	–	binds	–	binds
B5	binds	–	–	–
